The text below walks through data of patent US20230357378A1.

Results are given in words; binding and its absence hold for the method and conditions named. For some assays here: Binding calls can cover weak binding; strength is not graded here. Where a sequence is shown, tags or fusion partners need not be part of it.

One assay has as its target BSA. Put plainly: Western blot, 300 ng antigen per well, anti-rabbit IgG (Fc specific)-HRP 1:4000.
The next assay has as its target FAM19A5-Cκ. Description: Western blot, 300 ng antigen per well, primary antibody 2 ug/ml, anti-rabbit IgG (Fc specific)-HRP 1:4000.

B1: 1-65-scFv-rabbit-Fc-SSS (Fc fusion)
VH: AVTLDESGGGLQTPGGALSLVCKASGFTFSSYQMGWVRQAPGKGLEWVGVINKSGSDTSYGSAVKGRATISRDNGQSTVRLQLNNLRAEDTGTYFCAKGSASYITAATIDAWGHGTEVIVSS
VL: ALTQPSSVSANPGETVKITCSGGGSSGYGYGWYQQKSPSSAPLTVIYWNDKRPSDIPSRFSGSKSGSTHTLTITGVQAEDEAVYFCGNDDYSSDSGYVGVFGAGTTLTVL
With B1, the figures for the binding result with BSA and with FAM19A5-Cκ were “no binding (tested: 2 ug/ml)” and “binds”, respectively.
